Measurements taken from PMC10916869.
Results are given in words; binding and its absence hold for the method and conditions named. In cells and extracts the contact can be indirect. Binding calls can cover weak binding; strength is not graded here.

Key:
[1] = target: T1, CER-TMP21 (SS(TMP21)-CER-TMP21) (rat) (UniProt Q63584); experiment: co-IP; GFP-tag (Venus, Cerulean, YFP) pull-down with the μMACS GFP Isolation Kit from N2a cells 48 h after transient transfection; lysis, incubation and washes in 1% CHAPS, 50 mM HEPES pH 7.4, 100 mM NaCl, 2 mM CaCl2 at 4°C; eluates immunoblotted; untransfected parental cells as control; Figure 3C is a single experiment (n = 1)
T1 sequence: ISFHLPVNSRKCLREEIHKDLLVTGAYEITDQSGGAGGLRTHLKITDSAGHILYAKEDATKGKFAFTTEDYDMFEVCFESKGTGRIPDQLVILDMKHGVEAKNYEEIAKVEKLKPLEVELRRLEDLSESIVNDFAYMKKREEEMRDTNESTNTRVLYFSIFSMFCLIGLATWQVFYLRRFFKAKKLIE

[2] = target: T2, CER-TMED9 (SS(lactase)-CER-TMED9) (human) (UniProt Q9BVK6); experiment: as above
T2 sequence: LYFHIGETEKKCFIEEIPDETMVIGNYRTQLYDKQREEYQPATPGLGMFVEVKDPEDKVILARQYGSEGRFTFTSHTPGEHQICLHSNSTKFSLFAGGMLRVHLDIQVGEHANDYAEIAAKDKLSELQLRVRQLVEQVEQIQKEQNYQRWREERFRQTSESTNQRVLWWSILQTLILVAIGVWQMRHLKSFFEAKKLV

binding [1]: binds | binding [2]: binds
Substance: SNAP-FLAG-ATZ (SS(lactase)-S-FLAG-ATZ)
